According to PubChem BioAssay AID445 (National Center for Advancing Translational Sciences (NCATS), 2006):
Some of the results follow. The main result of the screen is listed elsewhere. These columns were measured beside it and carry no call. The list favours compounds with an active or inconclusive main result. Potencies come from curve fits of mixed quality, noted in brackets.

Experiment: IkB Signaling
Settings: ABC-DLBCL IkBa-CBG/CBR dual luciferase ratio (green luciferase fused to IkBa over red control in OCI-Ly3 lymphoma cells), 4 h; measured here: control luc red channel unless noted
Procedure, shortened: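 In this assay, an IκBα–CBG68 fusion accumulates when IKK-driven degradation is blocked; native CBR normalizes for cell number. OCI-Ly3 cells were treated 4 h with compound and doxycycline, then green and red light read after Chroma-Glo addition.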

Row | SMILES | AC50
1 | COc1ccc(-c2nc(CSCC(=O)N3CCN(c4ccccc4)CC3)c(C)o2)cc1 | 12.6 µM [falling, partial curve]
2 | COc1ccc(N2CCN(C(=O)CSCc3ccc(C)cc3)CC2)cc1 | 3.16 µM [rising, single point]
3 | CC(=O)c1cccc(NS(=O)(=O)c2cccc(S(=O)(=O)c3ccc(Br)cc3)c2)c1 | 25.1 µM [falling, partial curve]
4 | Cc1sc2ncnc(Oc3ccc(-n4ccnc4)cc3)c2c1C | 31.6 µM [falling, partial curve]
5 | CCOC(=O)c1sc2cccc(F)c2c1N | 15.8 µM [rising, partial curve]
6 | CCOC(=O)c1ccc(NC(=O)CCc2nc3cccnc3n2Cc2cccs2)cc1 | 39.8 µM [falling, partial curve]
7 | O=C(Nc1ccc(O)cc1)c1ccc(C(=O)c2ccccc2)o1 | 2.51 µM [falling, full curve]
8 | Cc1cccc(NC(=O)/C(C#N)=C/c2ccc(C)o2)c1 | 10 µM [falling, partial curve]
9 | Cc1ccc(S(=O)(=O)c2cn(CC(=O)Nc3ccc(Cl)cc3)c3ccc(F)cc3c2=O)cc1C | 0.158 µM [falling, full curve]
10 | CCOC(=O)c1c(NC(=O)c2cc(CC)on2)sc(C(C)=O)c1C | 1 µM [rising, full curve, poor fit]
11 | CCC(=O)Nc1cccc(-c2nc3cc(C)ccc3o2)c1 | 0.794 µM [rising, partial curve]
12 | Cc1ccc2c(c1)nnn2C1CCN(S(=O)(=O)c2ccc(C(=O)N3C(C)CCCC3C)cc2)CC1 (stereo not drawn) | 12.6 µM [falling, partial curve]
13 | CSc1ccc(CCNC(=O)c2c(C)oc3ncn(C)c(=O)c23)cc1 | 31.6 µM [falling, single point]
14 | Cc1cccc(Cn2c(Cc3ccccc3)nc3ccccc32)c1 | 31.6 µM [falling, single point]
15 | O=C(CN1c2ccccc2S(=O)(=O)c2ccccc21)Nc1cccc(C(F)(F)F)c1 | 31.6 µM [falling, single point]
16 | COc1ccc(CCN2CCC(CNC(=O)c3cnn(-c4cccc(Cl)c4)c3C3CCN(C(=O)OC(C)(C)C)CC3)CC2)cc1 | 39.8 µM [falling, single point]
17 | O=C(NCc1ccc(F)cc1)c1ccc2oc(=O)n(Cc3ccccc3)c2c1 | 31.6 µM [falling, partial curve]
18 | COc1ccccc1NC(=O)C(=O)NCC(c1cccnc1)N1CCc2ccccc2C1 (stereo not drawn) | 12.6 µM [falling, partial curve]

Some of these compounds in order of number of heavy atoms, smallest number first.
Row | SMILES | AC50
14 | Cc1cccc(Cn2c(Cc3ccccc3)nc3ccccc32)c1 | 31.6 µM [falling, single point]
15 | O=C(CN1c2ccccc2S(=O)(=O)c2ccccc21)Nc1cccc(C(F)(F)F)c1 | 31.6 µM [falling, single point]
1 | COc1ccc(-c2nc(CSCC(=O)N3CCN(c4ccccc4)CC3)c(C)o2)cc1 | 12.6 µM [falling, partial curve]
